{"source": "paper PMC3668579", "target": "ErpC (Borrelia burgdorferi) (UniProt Q44790)", "test": "SEC-MALS; 100 µg of sample injected onto a Superdex 200 10/300 column; Dawn Helios II and Optilab T-rEX; analysed with ASTRA; both purified", "note": "These are yes or no findings as the source states them, for the method shown."}
{"substance": "ErpC (from UniProt Q44790 21-179)", "values": [{"measurement": "binding", "value": "no binding (tested: 100 µg of sample injected)"}]}
